{"source": "PubChem BioAssay AID1259424 – University of Nebraska Medical Center – 2018", "screen": "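Find knockdowns that reproduce the expression shifts seen after KSR1 loss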 (primary screen)", "cell system": "human HCT116 colon cancer cells", "reagent": "siRNA pool against human genes, 50 nM", "read-out": "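Log2 levels of six mRNAs (branched-DNA multiplex), adjusted by two reference genes and the non-targeting median, then scored against the average KSR1 knockdown pattern as Pearson r and euclidean distance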", "direction": "mean correlation with KSR1 profile: higher = expression change more like KSR1 knockdown; mean distance from KSR1 profile: higher = expression change less like KSR1 knockdown", "note": "In all, the deposit lists about 14,000 reagents; below is an unselected part. 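Higher correlation or smaller distance means closer resemblance to KSR1 loss; control wells, including KSR1 knockdowns, recur on many plates.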 Not all columns of the deposit are shown. Not stated in the record: the time to read-out."}
{"target gene": "ZBED4 (zinc finger BED-type containing 4)", "mean correlation with KSR1 profile": 0.201, "mean distance from KSR1 profile": 1.85}
{"target gene": "SLC16A2", "mean correlation with KSR1 profile": -0.345, "mean distance from KSR1 profile": 1.91}
{"target gene": "RPRM (reprimo, TP53 dependent G2 arrest mediator homolog)", "mean correlation with KSR1 profile": 0.724, "mean distance from KSR1 profile": 1.6}
{"target gene": "TMEM106C (transmembrane protein 106C)", "mean correlation with KSR1 profile": 0.178, "mean distance from KSR1 profile": 1.56}
{"target gene": "ADAM17 (ADAM metallopeptidase domain 17)", "mean correlation with KSR1 profile": -0.00139, "mean distance from KSR1 profile": 1.87}
{"target gene": "GMPR2 (guanosine monophosphate reductase 2)", "mean correlation with KSR1 profile": 0.0291, "mean distance from KSR1 profile": 2.02}
{"target gene": "MYO19 (myosin XIX)", "mean correlation with KSR1 profile": 0.0707, "mean distance from KSR1 profile": 2.25}
{"target gene": "MCUR1 (mitochondrial calcium uniporter regulator 1)", "mean correlation with KSR1 profile": -0.0139, "mean distance from KSR1 profile": 6.19}
{"target gene": "SLC4A7", "mean correlation with KSR1 profile": 0.503, "mean distance from KSR1 profile": 1.36}
{"target gene": "THBS4 (thrombospondin 4)", "mean correlation with KSR1 profile": -0.233, "mean distance from KSR1 profile": 2.96}
{"target gene": "DCPH1 (damage control phosphatase 1)", "mean correlation with KSR1 profile": 0.7, "mean distance from KSR1 profile": 1.41}
{"target gene": "NOVA2 (NOVA alternative splicing regulator 2)", "mean correlation with KSR1 profile": 0.526, "mean distance from KSR1 profile": 1.52}
{"target gene": "CD300A (CD300a molecule)", "mean correlation with KSR1 profile": -0.0133, "mean distance from KSR1 profile": 1.98}
{"target gene": "HAPLN2 (hyaluronan and proteoglycan link protein 2)", "mean correlation with KSR1 profile": -0.256, "mean distance from KSR1 profile": 1.63}
{"target gene": "CRISP3 (cysteine rich secretory protein 3)", "mean correlation with KSR1 profile": -0.147, "mean distance from KSR1 profile": 0.954}
{"target gene": "CNN3 (calponin 3)", "mean correlation with KSR1 profile": 0.15, "mean distance from KSR1 profile": 1.38}
{"target gene": "CDK5R1 (cyclin dependent kinase 5 regulatory subunit 1)", "mean correlation with KSR1 profile": -0.275, "mean distance from KSR1 profile": 2.93}
{"target gene": "SRSF6 (serine and arginine rich splicing factor 6)", "mean correlation with KSR1 profile": 0.0475, "mean distance from KSR1 profile": 1.39}
{"target gene": "USP35 (ubiquitin specific peptidase 35)", "mean correlation with KSR1 profile": 0.708, "mean distance from KSR1 profile": 0.724}
{"target gene": "GMPS (guanosine monophosphate synthase)", "mean correlation with KSR1 profile": 0.47, "mean distance from KSR1 profile": 1.56}

2 consecutive records already listed:
{"target gene": "SLC4A7", "mean correlation with KSR1 profile": 0.503, "mean distance from KSR1 profile": 1.36}
{"target gene": "THBS4 (thrombospondin 4)", "mean correlation with KSR1 profile": -0.233, "mean distance from KSR1 profile": 2.96}

Further records follow.
{"target gene": "NR6A1 (nuclear receptor subfamily 6 group A member 1)", "mean correlation with KSR1 profile": 0.42, "mean distance from KSR1 profile": 1.67}
{"target gene": "SRD5A3 (steroid 5 alpha-reductase 3)", "mean correlation with KSR1 profile": 0.584, "mean distance from KSR1 profile": 1.13}
{"target gene": "SDSL (serine dehydratase like)", "mean correlation with KSR1 profile": 0.199, "mean distance from KSR1 profile": 2.19}
{"target gene": "RPS15A (ribosomal protein S15a)", "mean correlation with KSR1 profile": 0.0296, "mean distance from KSR1 profile": 3.53}
{"target gene": "PER2 (period circadian regulator 2)", "mean correlation with KSR1 profile": -0.52, "mean distance from KSR1 profile": 2.37}
{"target gene": "ING2 (inhibitor of growth family member 2)", "mean correlation with KSR1 profile": 0.0584, "mean distance from KSR1 profile": 2.69}
{"target gene": "MS4A7 (membrane spanning 4-domains A7)", "mean correlation with KSR1 profile": -0.846, "mean distance from KSR1 profile": 2.75}
{"target gene": "MPP3 (MAGUK p55 scaffold protein 3)", "mean correlation with KSR1 profile": 0.0985, "mean distance from KSR1 profile": 2.12}
{"target gene": "GPX2 (glutathione peroxidase 2)", "mean correlation with KSR1 profile": 0.15, "mean distance from KSR1 profile": 1.33}
{"target gene": "CYP4F3 (cytochrome P450 family 4 subfamily F member 3)", "mean correlation with KSR1 profile": -0.274, "mean distance from KSR1 profile": 2.85}
{"target gene": "BBS4 (Bardet-Biedl syndrome 4)", "mean correlation with KSR1 profile": -0.287, "mean distance from KSR1 profile": 1.85}
{"target gene": "RGPD5 (RANBP2 like and GRIP domain containing 5)", "mean correlation with KSR1 profile": 0.465, "mean distance from KSR1 profile": 1.94}
{"target gene": "MUSK (muscle associated receptor tyrosine kinase)", "mean correlation with KSR1 profile": -0.063, "mean distance from KSR1 profile": 2.96}
{"target gene": "NECAB3 (N-terminal EF-hand calcium binding protein 3)", "mean correlation with KSR1 profile": -0.257, "mean distance from KSR1 profile": 1.46}
{"target gene": "S100A7 (S100 calcium binding protein A7)", "mean correlation with KSR1 profile": -0.57, "mean distance from KSR1 profile": 1.92}
{"target gene": "TRIM56 (tripartite motif containing 56)", "mean correlation with KSR1 profile": 0.632, "mean distance from KSR1 profile": 1.14}
